Laboratory results as given in PubChem BioAssay AID2685 (National Center for Advancing Translational Sciences (NCATS), 2010).
About 2,100 (0.66%) of roughly 320,000 compounds were called active. The shares of active, inactive and inconclusive entries below differ from those in the screen. Calls follow the shape of the dose curve; as a rule, active = well fitted inhibition curve with a large enough effect in the signal ratio, with a control signal flat (not every such curve was filed as active); inconclusive = small, poorly fitted or top-dose-only effect, or effect the other way, or a change in a side signal; inactive = flat fitted curve, though single readings scatter; the % refers to the signal ratio. A potency beside an inconclusive call is a rough fit, not a confirmed value.

experiment: qHTS Assay for Lipid Storage Modulators in Drosophila S3 Cells; details: BODIPY lipid droplet fluorescence, 18-24 h, cells fed with added oleic acid; lipid storage change, negative = inhibition: at 46.1 µM (top of the series) unless noted
How it was run: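 Laser-scanning cytometry quantifies lipid droplet accumulation (500–530 nm total intensity; droplet/cell object ratio) in oleic acid-fed (400 uM added) Drosophila S3 cells treated with a concentration series. 20 uM Triacsin C defined 100% inhibition.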
% is scaled to controls: 0 for no effect and ±100 for the full control effect; potency is read from the fitted curve at half-maximal effect.

Compound | Potency | lipid storage change, negative = inhibition | outcome
COC(=O)Cc1ccc(NC(=O)c2ccc3c(c2)C(=O)N(Cc2ccco2)C3=O)cc1 | inconclusive: 29.1 µM [falling, single point] | – | –
O=C(COc1ccccc1)NCC1CCCO1 (configuration not stated) | – | inactive: 0.414% | –
COc1ccc(C(=O)NC(=S)Nc2ccccc2N2CCN(S(C)(=O)=O)CC2)cc1OC | – | inconclusive: -27.3% | –
COc1cccc(C(=O)N2CCN(c3ccc(N4CCOCC4)nn3)CC2)c1 | – | inconclusive: 35% | –
C=CCNC(=O)/C(C#N)=C/c1c(N(Cc2ccccc2)Cc2ccccc2)nc2ccccn2c1=O | – | inconclusive: -66.7% | –
CCOc1cc(N2CCOCC2)c(OCC)cc1NC(=O)COC(=O)CCOc1cc(C)ccc1C | – | inconclusive: -59.6% | –
COc1ccc(S(=O)(=O)Cc2ccc(C(=O)N3CC(C)CC(C)C3)o2)cc1 (configuration not stated) | – | inconclusive: -4.08% | –
O=C(CCNC(=O)c1ccc(Br)cc1)OCc1ccccc1Cl | – | inconclusive: 0.143% | –
COC(=O)Cn1c(=O)c2c(nc(Br)n2Cc2ccccc2Cl)n(C)c1=O | – | inconclusive: 7.31% | –
COc1ccc(C)cc1NC(=O)c1cccc(-c2ccc(OC(C)=O)cc2)c1 | – | inconclusive: -71.3% | –
CCCCn1c(O)c(N=Nc2ccccn2)c2ccccc21 | inconclusive: 32.6 µM [falling, single point] | – | –
Cc1ccc(C2(C)NC(=O)N(CC(=O)NC(C)c3ccccc3)C2=O)cc1 (configuration not stated) | inconclusive: 6.51 µM [activator, full curve] | – | –
Cc1ccc(C(=O)NCC(=O)Nc2ccncc2)cc1 | – | inconclusive: 15% | –
CN1C(=O)N(C)C(c2cccc([N+](=O)[O-])c2)C2=C1CCCC2=O (configuration not stated) | inconclusive: 6.51 µM [activator, single point] | – | –
O=[N+]([O-])c1cc(Br)c(Nc2ccccc2)c([N+](=O)[O-])c1 | inconclusive: 14.6 µM [falling, partial curve] | – | –
CCOc1cc(C(=O)NCC2CCCO2)cc(OCC)c1OCC (configuration not stated) | – | – | inactive [at 46.1 µM]
COc1ccc(N(CC(=O)Nc2ccccc2F)S(=O)(=O)c2ccc(C)c([N+](=O)[O-])c2)cc1 | – | inconclusive: -28.7% | –
O=C1C2=C(CCCC2)C(=O)N1c1cccc(OCCBr)c1 | – | inconclusive: -9.5% | –
COc1ccc(S(=O)(=O)N2CCC3(CC2)CC(=O)c2ccccc2O3)cc1OC | – | inconclusive | –
CCN(Cc1ccccc1)C(=O)c1cc(S(=O)(=O)N2CCOCC2)cn1C | – | inconclusive: 6.68% | –
CCCc1nnc(NC(=O)c2oc3ccccc3c2COCC)s1 | – | inconclusive | –
C=CCn1c(COc2ccccc2)nc2ccccc21 | inconclusive: 2.59 µM [activator, single point] | – | –
C=CCn1c(COc2cccc3cccnc23)nnc1SCC(=O)O | inconclusive: 0.116 µM [falling, full curve] | – | –
O=C(NN1CCOCC1)C12CC3CC(CC(C3)C1)C2 | – | inconclusive: 7.82% | –
O=C(NCCc1ccccc1)c1ccc(S(=O)(=O)N2CCCC2)cc1 | – | inconclusive: 22.9% | –
COc1ccc(CN2CCN(C(=O)CCC(=O)Nc3nnc(C(F)(F)F)s3)CC2)cc1F | – | inconclusive: 2.51% | –

Compound | Potency | lipid storage change, negative = inhibition | outcome
Cc1ccc(NS(=O)(=O)c2ccc3c(c2)CCC(=O)N3)cc1 | inconclusive: 18.4 µM [falling, single point] | – | –
CN(C)S(=O)(=O)c1cccc(NC(=S)NC2CCCCC2)c1 | – | inconclusive: 49.8% | –
COc1ccc(-c2csc(CCn3nc(C)cc3C)n2)cc1 | inconclusive: 0.82 µM [activator, full curve, poor fit] | – | –
CCOC(=O)CNc1nc(Cl)nc(N2CCCCC2)n1 | – | inconclusive: 8.92% | –
CCC(=O)Nc1cc(C(=O)OCc2ccc(C(=O)Oc3ccccc3)cc2)ccc1C | inconclusive: 32.6 µM [activator, single point] | – | –
CC(C)Nc1nc(NC(C)C)nc(Oc2ccc(OCc3ccccc3)nn2)n1 | – | inconclusive: 92.5% | –
COc1ccc(-c2nn(-c3ccccc3)cc2/C=C/C(=O)OCC(=O)Nc2ccc(C#N)cc2)cc1 | – | inconclusive: 49.2% | –
CCOc1ccc(-c2nnc(NC(=O)C3CCCC3)o2)cc1 | – | inconclusive: -82% | –
Nc1ccc(C(=O)Nc2cccc3ncccc23)cc1 | inconclusive: 6.51 µM [falling, single point] | – | –
N#Cc1ccc2ccn(CC(=O)NCc3ccco3)c2c1 | – | inconclusive: 9.37% | –
S=C(NCCNC(=S)Nc1ccccc1Cl)Nc1ccccc1Cl | – | inconclusive: -55.3% | –
CCN(CC)C(=O)c1cccc(NC(=O)c2cc(C3CC3)nc3c2cnn3C(C)C)c1 | inconclusive: 0.13 µM [falling, full curve, poor fit] | – | –
CCCCNC(=O)COC(=O)c1c2c(nc3ccccc13)CCC2 | active: 7.31 µM | – | –
Cc1nc(CS(=O)(=O)c2ccc(Cl)cc2)cc(Sc2ccc(Cl)cc2)n1 | – | inconclusive: 27.9% | –
Cc1cc(C)c2c(=O)[nH]c(SCC(=O)N3CCOCC3)nc2n1 | – | inconclusive: 45.7% | –
CN1CCCN(C(=O)c2ccc(Br)s2)CC1 | – | inconclusive: -29.8% | –
O=C(NCC1CCCO1)c1cc2c([nH]c3ccccc32)c(-c2cccc(Cl)c2)n1 (configuration not stated) | – | inconclusive: -96.5% | –
CCOC(=O)N1CCN(c2c(NCCOC)c(=O)c2=O)CC1 | – | inconclusive: -8.71% | –
C=CCN1C(=O)/C(=C/c2ccc(OC(C)=O)c(OCC)c2[N+](=O)[O-])SC1=S | – | inconclusive: -100% | –
O=C(NCC(c1ccco1)N1CCc2ccccc2C1)c1ccc(F)cc1 (configuration not stated) | – | inconclusive: 36.5% | –
Cc1ccccc1NC1=NC(=S)N(CC(N)=O)C12CCOC(C)(C)C2 (configuration not stated) | – | inconclusive: 25.3% | –
COc1ccc(CC(=O)N(C)Cc2cccc(F)c2)cc1S(=O)(=O)N1CCOCC1 | – | inactive: 21.5% | –
O=C1NCCCC1C(=O)N1CCN(C(=O)C2CCCNC2=O)CC1 (configuration not stated) | – | inconclusive: 7.8% | –
CCC(OC(=O)c1cccs1)C(=O)NC1CCCCC1 (configuration not stated) | inconclusive: 0.0651 µM [falling, full curve, poor fit] | – | –
CCc1nn(-c2cc(Oc3ccccc3)nc(-c3ccccc3)n2)c(N)c1C#N | inconclusive: 29.1 µM [activator, single point] | – | –
CCn1c(-c2ccsc2)nc2c1c(=O)[nH]c(=O)n2Cc1ccccc1 | inconclusive: 2.06 µM [activator, full curve] | – | –

Some of the entries so far, as tab-separated lines:
Compound	Potency	lipid storage change, negative = inhibition	outcome
O=C1NCCCC1C(=O)N1CCN(C(=O)C2CCCNC2=O)CC1 (configuration not stated)	–	inconclusive: 7.8%	–
CCC(OC(=O)c1cccs1)C(=O)NC1CCCCC1 (configuration not stated)	inconclusive: 0.0651 µM [falling, full curve, poor fit]	–	–
CCc1nn(-c2cc(Oc3ccccc3)nc(-c3ccccc3)n2)c(N)c1C#N	inconclusive: 29.1 µM [activator, single point]	–	–

Quoted at random: 2 compounds from above
Compound | Potency | lipid storage change, negative = inhibition | outcome
Cc1ccccc1NC1=NC(=S)N(CC(N)=O)C12CCOC(C)(C)C2 (configuration not stated) | – | inconclusive: 25.3% | –
COc1ccc(-c2nn(-c3ccccc3)cc2/C=C/C(=O)OCC(=O)Nc2ccc(C#N)cc2)cc1 | – | inconclusive: 49.2% | –

Later entries

Compound | Potency | lipid storage change, negative = inhibition | outcome
Cc1ccc(NC(=O)COc2ccc(C(=O)c3ccccc3)cc2)c(O)c1 | – | inconclusive: -28.1% | –
COc1ccc(N2CCN(C(=O)c3cc4c(s3)CCCCC4)CC2)cc1 | inconclusive: 6.51 µM [falling, partial curve] | – | –
N/C(=N\OS(=O)(=O)c1ccc2ccccc2c1)c1cccnc1 | – | inconclusive: -3.08% | –
O=C(/C=C/c1ccc(Br)cc1)c1ccc(NC2=NCCCS2)cc1 | inconclusive: 29.1 µM [falling, single point] | – | –
COc1ccccc1CNCC(=O)Nc1ccc(N(C)C)cc1 | – | inconclusive: 18.1% | –
Cc1ccc(OCC(=O)Nc2ccc3oc(=O)ccc3c2)cc1C | – | inconclusive: 342% | –
Cc1ccc(S(=O)(=O)NCCC(=O)NNC(=O)c2ccccc2O)cc1C | – | inconclusive: -54.3% [at 0.0737 µM] | –
Cc1ccc(-c2nn(CC(N)=O)c(=O)c3ccccc23)cc1S(=O)(=O)N(C)C | inconclusive: 0.291 µM [rising, partial curve, poor fit] | – | –
COc1cccc(N2CCN(C(=O)c3ccc4nc(N5CCCCC5)sc4c3)CC2)c1 | – | inconclusive: -2.36% | –
CCOc1ncccc1C(=O)Nc1cc(S(=O)(=O)N2CCCCC2)ccc1C | inconclusive: 0.92 µM [rising, full curve] | – | –
COCc1cc(C)nc2sc3c(=O)oc(C)nc3c12 | – | inconclusive: 13.6% | –
CCC(C)(C)NC(=O)C(C(C)C)N(CC1CCCO1)C(=O)CNS(=O)(=O)c1ccc(F)cc1 (configuration not stated) | – | inconclusive: -67.1% | –
O=C(CNC1CCCC1)Nc1ccc(N2CCCCCC2)cc1 | – | inconclusive: -0.45% | –
CCCCC(=O)Nc1ccccc1Oc1ccccc1 | – | inconclusive: 7.86% | –
Cc1ccc(OCC(=O)NS(=O)(=O)c2ccccc2)cc1 | – | inconclusive: -57.2% | –
CN(CC(=O)Nc1cccc(F)c1)C(=O)c1ccc(-c2cccc(C(F)(F)F)c2)o1 | – | inconclusive: -18.4% | –
Cc1ccccc1NC(=O)c1ccccc1NC(=O)c1ccco1 | inconclusive: 1.46 µM [activator, full curve, poor fit] | – | –
O=C(NCCCN1CCN(c2ccccc2)CC1)Nc1ccccc1C(F)(F)F | inconclusive: 6.51 µM [activator, single point] | – | –
C=CCn1c(SCC(=O)C(C)(C)C)nnc1-c1cccs1 | inconclusive: 0.13 µM [activator, full curve, poor fit] | – | –
COC(=O)C1C(=O)c2c([nH]c(C(=O)OCCSC)c2C)CC1C (configuration not stated) | inconclusive: 14.6 µM [cytotoxic, partial curve] | – | –
CC(=O)Nc1ccc(NC(=O)CSc2ccc(-c3cccs3)nn2)cc1 | – | inconclusive: -24.4% | –
CN1CCN(C(=O)CCCN2C(=O)/C(=C/c3cccc(Br)c3)SC2=S)CC1 | – | inconclusive: -42.2% | –
CCOc1ccccc1N1CC(O)=C(c2nc3ccccc3s2)C1=N | inconclusive: 0.291 µM [activator, partial curve, poor fit] | – | –
COc1ccc(NC2CCCN(C(=O)CSc3ccccn3)C2)cc1OC (configuration not stated) | – | inactive: -17.1% | –
CC(C)c1ccc(-c2nnc(N)s2)cc1 | inconclusive: 3.66 µM [activator, full curve, poor fit] | – | –
